Columns and labels:
Assay type in all cases: in vivo, human
[1] = Metabolomic profiling of blood plasma, 62 ALS subjects vs 62 control subjects (Example 3; Tables 7, 8); details: blood plasma
[2] = Disease progression: plasma of 40 ALS subjects, random coefficient regression analysis over time (Table 16); details: common slope of plasma metabolite level over month (0, 1, 6, 12), positive = level increased over time, negative = decreased
[3] = Disease progression: plasma of ALS subjects, matched-pairs T-test month 1 vs month 12 (Table 18); details: mean plasma level, month 1 vs month 12 after screening; positive = increase as disease progressed; 37 ALS patients
[4] = Metabolomic profiling (GC-MS/LC-MS) of CSF samples, ALS subjects vs control subjects (Example 1; Tables 3, 4); details: CSF
[5] = Metabolomics demographic study of plasma from 270 healthy volunteers of various ages (Table 11)
[6] = ALS mean level compared to control mean level, positive = increase in ALS
[7] = ALS mean level vs control mean level, 62 ALS vs 62 control subjects, analytical platform GC-MS
[8] = ALS mean as compared to control mean, T-tests of ALS vs. Controls
[9] = mean in ALS samples vs control samples, T-tests
[10] = ALS mean level vs control mean level, 62 ALS vs 62 control subjects, analytical platform LC-MS

| Compound | % change in ALS [1, 6] [%] | SLOPE [2] | % Change with disease progression [3] [%] | % change in ALS [1, 7] [%] | % change in ALS [4, 8] [%] | % change in ALS ([4]; ALS mean as compared to the control mean) [%] | Increase (+) or Decrease (−) in ALS ([4]; mean in ALS samples as compared to control samples) | Increase (+) or Decrease (−) in ALS [4, 9] | change of plasma level with age [5] | % change in ALS [1, 10] [%] |
| --- | --- | --- | --- | --- | --- | --- | --- | --- | --- | --- |
| C[N+](C)(C)CCOP(=O)([O-])OC[C@H](O)CO [L-alpha-glycerophosphorylcholine] | 0 | −0.028 | −43 |  |  |  |  |  |  |  |
| O=C(O)C(O)CO (stereo not shown) [glyceric acid] | −2 | −0.014 | −16 | −2 |  |  |  |  |  |  |
| N[C@@H](CO)C(=O)O [Serine] | −4 | 0.026 | 28 | −4 |  |  |  |  |  |  |
| Cn1c(=O)c2c(ncn2C)n(C)c1=O [Caffeine] |  | −0.030 | −36 |  | −24 | −24 | − | − | increase with age |  |
| N=C(N)NCCCC(=O)O [4-Guanidinobutanoic acid] | −7 | −0.016 | −16 |  |  |  |  |  |  | −7 |
| O=C(O)C(=O)CO [beta-hydroxypyruvic acid] | 30 | 0.010 | 3 |  |  |  |  |  |  | 30 |
| Cn1c(=O)[nH]c2ncn(C)c2c1=O [Paraxanthine, 1-7-dimethylxanthine] |  | −0.025 | −27 |  |  |  |  |  | increase with age |  |
| O=P(O)(O)OC[C@H](O)CO [sn-Glycerol-3-phosphate] | 1 | 0.001 | −2 |  |  |  |  |  |  |  |
| CSCC[C@H](N)C(=O)O [Methionine] | −14 | 0.046 | 48 |  |  |  |  |  |  | −14 |
| CC(O)CC(=O)O (stereo not shown) [3-hydroxybutanoic acid] | −4 | 0.010 | 1 |  |  |  |  |  |  |  |
| C[C@H](N)C(=O)O [Alanine] | −3 | 0.017 | 16 | −3 |  |  |  |  |  |  |
| CCCCCCCCCCCCCC(=O)O [tetradecanoic acid] | −11 | 0.003 | 5 | −11 |  |  |  |  |  |  |
| CCCCCCCCCCCCCCCC(=O)O [n-hexadecanoic acid] | 5 | 0.004 | 9 | 5 |  |  |  |  |  |  |
| COC(=O)Cc1c[nH]c2ccccc12 [methyl-indole-3-acetate] | 14 | −0.009 | −6 |  |  |  |  |  |  | 14 |
| O=C(O)CC(O)(CC(=O)O)C(=O)O [citric acid] | −9 | −0.005 | −3 | −9 |  |  |  |  |  |  |
| O=C(O)CO [hydroxyacetic acid] | −2 | −0.004 | −5 | −2 |  |  |  |  |  |  |
| N[C@@H](Cc1ccc(O)cc1)C(=O)O [Tyrosine] | −1 | −0.008 | −8 |  |  |  |  |  |  |  |
| NC(=O)NC1NC(=O)NC1=O (stereo not shown) [Allantoin] | −3 | 0.005 | −8 |  |  |  |  |  |  |  |
| N[C@@H](Cc1c[nH]cn1)C(=O)O [Histidine] | −7 | 0.006 | 4 | −7 |  |  |  |  |  |  |
| CC(C)[C@H](N)C(=O)O [Valine] | 7 | 0.011 | 12 | 7 |  |  |  |  |  |  |
| O[C@H]1[C@H](O)[C@@H](O)[C@H](O)[C@@H](O)[C@H]1O [Inositol] | 2 | −0.005 | −10 | 2 |  |  |  |  |  |  |
| C[C@@H](O)[C@H](N)C(=O)O [Threonine] | −16 | 0.017 | 16 | −16 |  |  |  |  |  |  |
| O=C(O)C(=O)[C@@H](O)[C@H](O)[C@@H](O)CO [2-keto-L-gulonic acid] | 6 | −0.006 | −8 | 6 |  |  |  |  |  |  |

| Compound | % change in ALS [1, 6] [%] | SLOPE [2] | % Change with disease progression [3] [%] | % change in ALS [1, 7] [%] | % change in ALS [4, 8] [%] | % change in ALS ([4]; ALS mean as compared to the control mean) [%] | Increase (+) or Decrease (−) in ALS ([4]; mean in ALS samples as compared to control samples) | Increase (+) or Decrease (−) in ALS [4, 9] | change of plasma level with age [5] | % change in ALS [1, 10] [%] |
| --- | --- | --- | --- | --- | --- | --- | --- | --- | --- | --- |
| C[N+](C)(C)CC(O)CC(=O)[O-] (stereo not shown) [Carnitine] | 9 | −0.007 | 1 |  | 55 |  |  | + |  | 9 |
| NCCc1c[nH]cn1 [Histamine] | 2 | 0.017 | 24 |  |  |  |  |  |  | 2 |
| CC(C)C[C@H](N)C(=O)O [Leucine] | 3 | 0.010 | 10 | 3 |  |  |  |  |  |  |
| O=C[C@@H](O)[C@H](O)[C@H](O)CO [Arabinose] | 0 | −0.016 | −22 |  |  |  |  |  |  |  |
| O=C(O)[C@@H]1CCCN1 [Praline] | 3 | −0.004 | −6 | 3 |  |  |  |  |  |  |
| CCCCCCCCCC(=O)O [decanoic acid] | 10 | −0.001 | 3 | 10 |  |  |  |  |  |  |
| CCCCCCCCC(=O)O [Nonanate] | −4 | −0.001 | 0 | −4 |  |  |  |  |  |  |
| NC(=O)CC[C@H](N)C(=O)O [Glutamine] | −8 | 0.049 | 65 | −8 |  |  |  |  |  |  |
| O=C(O)c1ccccc1 [benzoic acid] | −4 | 0.013 | 2 | −4 |  |  |  |  |  |  |
| N[C@@H](CCCCN[C@@H](CCC(=O)O)C(=O)O)C(=O)O [Saccharopine] | −20 | −0.004 | −7 |  |  |  |  |  |  | −20 |
| NC(CCS)C(=O)O (racemic) [DL-homocysteine] | 8 | −0.005 | −5 |  |  |  |  |  |  | 8 |
| CCCCCC/C=C\CCCCCCCC(=O)O [palmitoleic acid] | −17 | 0.015 | 29 | −17 |  |  |  |  |  |  |
| OCC(O)CO [Glycerol] | −7 | 0.007 | 12 | −7 |  |  |  |  |  |  |
| N[C@@H](CCC(=O)O)C(=O)O [glutamic acid] | 47 | 0.006 | 5 | 47 |  |  |  |  |  |  |
| C=CC1=C(C)/C(=C/C2=NC(=C\c3[nH]c(/C=C4\NC(=O)C(C)=C4C=C)c(C)c3CCC(=O)O)/C(CCC(=O)O)=C2C)NC1=O [Biliverdin] | 4 | −0.015 | 1 |  |  |  |  |  |  | 4 |
| NC(N)=O [Urea] | 15 | −0.002 | 1 | 15 |  |  |  |  |  |  |
| CCCCC/C=C\C/C=C\C/C=C\C/C=C\CCCC(=O)O [arachidonic acid] | 47 | −0.006 | −5 | 47 |  |  |  |  |  |  |
| N[C@@H](Cc1ccccc1)C(=O)O [Phenylalanine] | −2 | −0.001 | −3 |  |  |  |  |  |  | −2 |
| Cc1c(C)c2c(c(C)c1O)CC[C@@](C)(CCC[C@H](C)CCC[C@H](C)CCCC(C)C)O2 [alpha-tocopherol] | 48 | −0.046 | −21 | 48 |  |  |  |  |  |  |
| CC(C)CCC[C@@H](C)[C@H]1CC[C@H]2[C@@H]3CC=C4C[C@@H](O)CC[C@]4(C)[C@H]3CC[C@]12C [Cholesterol] | 10 | −0.004 | −3 | 10 |  |  |  |  |  |  |
| N[C@@H](Cc1c[nH]c2ccccc12)C(=O)O [Tryptophan] | 0 | −0.004 | −5 |  |  |  |  |  |  |  |
| O=c1[nH]c(=O)c2[nH]c(=O)[nH]c2[nH]1 [uric acid] | −5 | 0.000 | −2 | −5 |  |  |  |  |  |  |
| O=C(O)CC(O)C(=O)O (stereo not shown) [malic acid] | −8 | 0.019 | 13 |  |  |  |  |  |  | −8 |
